This note sets out measurements from paper PMC8611090.

Sequences of proteins named here, by UniProt entry; tags and fusion partners are left off.
UniProt O88990: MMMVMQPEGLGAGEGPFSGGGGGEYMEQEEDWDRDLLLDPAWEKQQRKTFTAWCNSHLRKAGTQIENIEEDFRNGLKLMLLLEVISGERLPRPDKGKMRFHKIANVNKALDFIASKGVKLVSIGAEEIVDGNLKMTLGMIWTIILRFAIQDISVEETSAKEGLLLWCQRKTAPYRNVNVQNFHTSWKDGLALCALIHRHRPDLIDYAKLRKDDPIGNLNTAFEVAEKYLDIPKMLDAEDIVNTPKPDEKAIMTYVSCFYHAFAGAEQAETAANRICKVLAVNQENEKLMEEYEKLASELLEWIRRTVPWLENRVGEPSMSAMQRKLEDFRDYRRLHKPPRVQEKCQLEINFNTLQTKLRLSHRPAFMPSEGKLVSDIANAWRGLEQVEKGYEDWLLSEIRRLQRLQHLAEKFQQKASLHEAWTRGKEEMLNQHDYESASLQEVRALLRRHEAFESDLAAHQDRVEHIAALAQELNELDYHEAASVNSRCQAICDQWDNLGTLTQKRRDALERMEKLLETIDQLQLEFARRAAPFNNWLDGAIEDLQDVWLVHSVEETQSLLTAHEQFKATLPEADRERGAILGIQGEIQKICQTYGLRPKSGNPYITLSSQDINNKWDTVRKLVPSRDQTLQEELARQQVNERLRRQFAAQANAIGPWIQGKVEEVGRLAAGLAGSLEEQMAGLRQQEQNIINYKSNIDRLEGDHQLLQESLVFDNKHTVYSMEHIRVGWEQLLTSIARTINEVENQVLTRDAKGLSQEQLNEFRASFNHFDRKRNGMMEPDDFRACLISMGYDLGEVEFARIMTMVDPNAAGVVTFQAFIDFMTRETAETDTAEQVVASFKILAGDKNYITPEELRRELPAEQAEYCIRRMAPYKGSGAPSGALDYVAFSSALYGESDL
UniProt Q9CZW4: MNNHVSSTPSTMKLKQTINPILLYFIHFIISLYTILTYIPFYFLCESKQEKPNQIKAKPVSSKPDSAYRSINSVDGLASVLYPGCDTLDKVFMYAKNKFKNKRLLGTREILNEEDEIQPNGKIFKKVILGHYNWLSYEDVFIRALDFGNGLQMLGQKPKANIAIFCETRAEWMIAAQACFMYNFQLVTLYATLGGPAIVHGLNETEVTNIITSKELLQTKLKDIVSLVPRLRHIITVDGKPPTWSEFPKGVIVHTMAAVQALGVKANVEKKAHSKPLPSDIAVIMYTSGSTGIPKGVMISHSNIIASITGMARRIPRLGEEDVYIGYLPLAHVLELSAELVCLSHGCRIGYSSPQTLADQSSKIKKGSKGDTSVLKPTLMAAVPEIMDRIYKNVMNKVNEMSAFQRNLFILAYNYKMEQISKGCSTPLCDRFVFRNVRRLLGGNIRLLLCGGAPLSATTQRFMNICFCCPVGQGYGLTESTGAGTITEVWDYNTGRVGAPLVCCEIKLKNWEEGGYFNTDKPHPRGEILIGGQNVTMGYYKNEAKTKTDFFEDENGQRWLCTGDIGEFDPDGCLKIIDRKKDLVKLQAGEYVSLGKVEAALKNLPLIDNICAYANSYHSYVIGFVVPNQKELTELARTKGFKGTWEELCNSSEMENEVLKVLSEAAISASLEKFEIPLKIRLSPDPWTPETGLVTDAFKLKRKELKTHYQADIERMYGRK

No constants are given. Whether binding was seen depends on the method and setting. Binding seen in cells or lysates may run through a third protein. Some results given as binding are weak or reduced against the parent protein; the word gives no strength. For some of these results: Where a sequence is shown, tags or fusion partners need not be part of it.

In test [1] the target is ACTN3 (mouse (endogenous in C2C12)) (UniProt O88990). Kind of test: co-IP; co-immunoprecipitation in C2C12 cells (Fig. 4A); Protein A/G beads.
Test [2] concerns the target ACTN3 expressed from a tag vector (UniProt O88990). Kind of test: co-IP; co-immunoprecipitation using tag vectors in C2C12 cells (SI Appendix Fig. S3E, F).

Consider “Acyl-CoA synthetase long chain family member 3 (ACSL3) (from UniProt Q9CZW4 1-720)”, for which, in test [1], the binding entry is on record as “binds”.
Turning to “ACSL3 expressed from a tag vector (from UniProt Q9CZW4 1-720)”, the binding entry in test [2] is “binds”.

B1: lysophosphatidylcholine acyltransferase 1 (LPCAT1) (protein, UniProt Q3TFD2 1-534)
chain: MRLRGRGPRAAPSSSSGAGDARRLAPPGRNPFVHELRLSALQKAQVAFMTLTLFPIRLLFAAFMMLLAWPFALLASLGPPDKEPEQPLALWRKVVDFLLKAIMRTMWFAGGFHRVAVKGRQALPTEAAILTLAPHSSYFDAIPVTMTMSSIVMKAESRDIPIWGTLIRYIRPVFVSRSDQDSRRKTVEEIKRRAQSNGKWPQIMIFPEGTCTNRTCLITFKPGAFIPGVPVQPVVLRYPNKLDTITWTWQGPGALKILWLTLCQFQNQVEIEFLPVYCPSEEEKRNPALYASNVRRVMAKALGVSVTDYTFEDCQLALAEGQLRLPADTCLLEFARLVRGLGLKPENLEKDLDKYSESARMKRGEKIRLPEFAAYLEVPVSDALEDMFSLFDESGGGEIDLREYVVALSVVCRPSQTLATIQLAFKMYGSPEDGSIDEANLSCILKTALGVSELTVTDLFQAIDQEDKGRITFDDFCGFAEMYPDYAEDYLYPDQTHFDSCAQTPPAPTPNGFCIDFSPENSDFGRKNSCKKAD
Regarding B1, the binding entry in test [1] is given as “binds”.

B2: LPCAT1 expressed from a tag vector (protein, UniProt Q3TFD2 1-534)
chain: B1 chain
For the molecule B2, the binding entry in test [2] is given as “binds”.
